According to the supplement of paper PMC12819154, “High-throughput peptide-centric local stability assay extends protein–ligand identification to membrane proteins, tissues and bacteria” (Nature Structural & Molecular Biology, 2025):
The other results are listed elsewhere or left out. Most values lie at the level of the controls, where differences are scatter.

By UniProt entry, the sequences of proteins in these tests, tags left out. Where a name states a change or a piece, a line headed by the entry shows the natural chain unless it says otherwise.
UniProt B1AZI6: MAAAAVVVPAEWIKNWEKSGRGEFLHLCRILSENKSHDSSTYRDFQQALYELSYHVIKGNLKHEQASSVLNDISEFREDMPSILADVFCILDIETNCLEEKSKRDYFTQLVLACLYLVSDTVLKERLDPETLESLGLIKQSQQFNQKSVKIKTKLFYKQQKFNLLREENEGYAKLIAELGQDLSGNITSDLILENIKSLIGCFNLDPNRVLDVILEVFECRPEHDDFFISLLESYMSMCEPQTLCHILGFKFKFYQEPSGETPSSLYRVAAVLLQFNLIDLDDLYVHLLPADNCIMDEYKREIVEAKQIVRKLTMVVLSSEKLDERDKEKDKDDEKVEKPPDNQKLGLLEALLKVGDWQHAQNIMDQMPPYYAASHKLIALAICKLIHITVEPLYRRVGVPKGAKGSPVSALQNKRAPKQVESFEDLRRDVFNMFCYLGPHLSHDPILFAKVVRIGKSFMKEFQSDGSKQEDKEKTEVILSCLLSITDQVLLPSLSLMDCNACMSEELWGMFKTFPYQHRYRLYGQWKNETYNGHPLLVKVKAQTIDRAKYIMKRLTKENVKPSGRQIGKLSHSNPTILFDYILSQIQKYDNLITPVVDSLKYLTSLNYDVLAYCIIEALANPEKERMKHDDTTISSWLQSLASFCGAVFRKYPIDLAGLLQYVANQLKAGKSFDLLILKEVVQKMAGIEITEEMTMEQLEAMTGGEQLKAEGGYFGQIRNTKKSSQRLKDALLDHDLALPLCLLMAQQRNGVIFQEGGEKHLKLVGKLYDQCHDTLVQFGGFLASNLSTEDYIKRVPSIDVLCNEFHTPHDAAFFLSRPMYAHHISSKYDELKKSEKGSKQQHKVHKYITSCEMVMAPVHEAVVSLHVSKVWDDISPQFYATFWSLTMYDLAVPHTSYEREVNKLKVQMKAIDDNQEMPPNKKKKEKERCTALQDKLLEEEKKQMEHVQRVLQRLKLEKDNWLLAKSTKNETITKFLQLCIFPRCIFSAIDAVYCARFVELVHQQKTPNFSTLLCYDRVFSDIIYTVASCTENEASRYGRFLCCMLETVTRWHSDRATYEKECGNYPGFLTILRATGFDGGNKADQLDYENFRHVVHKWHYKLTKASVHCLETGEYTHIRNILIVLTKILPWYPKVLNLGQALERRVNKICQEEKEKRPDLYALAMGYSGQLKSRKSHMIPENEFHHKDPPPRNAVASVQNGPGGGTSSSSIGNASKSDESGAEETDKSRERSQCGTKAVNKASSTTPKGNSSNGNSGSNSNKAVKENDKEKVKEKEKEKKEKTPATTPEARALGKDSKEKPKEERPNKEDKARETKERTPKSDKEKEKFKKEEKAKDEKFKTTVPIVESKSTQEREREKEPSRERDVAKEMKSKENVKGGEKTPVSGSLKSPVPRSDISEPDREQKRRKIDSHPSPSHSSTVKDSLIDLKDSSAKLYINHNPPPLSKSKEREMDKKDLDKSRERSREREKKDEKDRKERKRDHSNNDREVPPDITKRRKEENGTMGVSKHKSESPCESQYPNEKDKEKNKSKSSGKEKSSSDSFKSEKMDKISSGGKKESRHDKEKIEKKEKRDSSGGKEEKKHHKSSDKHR
UniProt B1AVH7: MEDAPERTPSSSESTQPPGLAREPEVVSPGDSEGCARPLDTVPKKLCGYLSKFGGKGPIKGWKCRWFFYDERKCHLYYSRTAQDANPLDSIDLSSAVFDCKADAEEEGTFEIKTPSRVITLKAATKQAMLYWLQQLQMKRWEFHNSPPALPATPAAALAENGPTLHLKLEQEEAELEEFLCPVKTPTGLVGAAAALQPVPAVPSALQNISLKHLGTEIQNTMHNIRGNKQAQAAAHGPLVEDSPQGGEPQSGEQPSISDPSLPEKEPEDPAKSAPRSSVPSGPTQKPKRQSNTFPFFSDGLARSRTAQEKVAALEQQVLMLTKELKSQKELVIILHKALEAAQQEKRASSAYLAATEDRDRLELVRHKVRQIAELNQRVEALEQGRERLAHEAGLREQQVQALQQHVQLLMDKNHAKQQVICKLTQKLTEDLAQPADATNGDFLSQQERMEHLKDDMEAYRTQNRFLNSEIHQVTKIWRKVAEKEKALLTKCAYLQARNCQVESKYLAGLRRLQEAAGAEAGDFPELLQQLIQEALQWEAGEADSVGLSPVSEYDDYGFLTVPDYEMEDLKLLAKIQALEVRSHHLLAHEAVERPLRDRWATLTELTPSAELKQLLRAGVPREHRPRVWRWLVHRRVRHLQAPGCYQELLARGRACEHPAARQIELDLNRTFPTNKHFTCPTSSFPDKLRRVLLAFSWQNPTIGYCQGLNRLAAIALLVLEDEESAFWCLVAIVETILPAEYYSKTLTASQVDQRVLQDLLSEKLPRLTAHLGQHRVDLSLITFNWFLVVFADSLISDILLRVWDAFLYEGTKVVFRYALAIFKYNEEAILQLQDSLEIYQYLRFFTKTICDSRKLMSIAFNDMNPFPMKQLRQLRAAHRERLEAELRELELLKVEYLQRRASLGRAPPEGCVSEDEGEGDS
UniProt A6H6E2: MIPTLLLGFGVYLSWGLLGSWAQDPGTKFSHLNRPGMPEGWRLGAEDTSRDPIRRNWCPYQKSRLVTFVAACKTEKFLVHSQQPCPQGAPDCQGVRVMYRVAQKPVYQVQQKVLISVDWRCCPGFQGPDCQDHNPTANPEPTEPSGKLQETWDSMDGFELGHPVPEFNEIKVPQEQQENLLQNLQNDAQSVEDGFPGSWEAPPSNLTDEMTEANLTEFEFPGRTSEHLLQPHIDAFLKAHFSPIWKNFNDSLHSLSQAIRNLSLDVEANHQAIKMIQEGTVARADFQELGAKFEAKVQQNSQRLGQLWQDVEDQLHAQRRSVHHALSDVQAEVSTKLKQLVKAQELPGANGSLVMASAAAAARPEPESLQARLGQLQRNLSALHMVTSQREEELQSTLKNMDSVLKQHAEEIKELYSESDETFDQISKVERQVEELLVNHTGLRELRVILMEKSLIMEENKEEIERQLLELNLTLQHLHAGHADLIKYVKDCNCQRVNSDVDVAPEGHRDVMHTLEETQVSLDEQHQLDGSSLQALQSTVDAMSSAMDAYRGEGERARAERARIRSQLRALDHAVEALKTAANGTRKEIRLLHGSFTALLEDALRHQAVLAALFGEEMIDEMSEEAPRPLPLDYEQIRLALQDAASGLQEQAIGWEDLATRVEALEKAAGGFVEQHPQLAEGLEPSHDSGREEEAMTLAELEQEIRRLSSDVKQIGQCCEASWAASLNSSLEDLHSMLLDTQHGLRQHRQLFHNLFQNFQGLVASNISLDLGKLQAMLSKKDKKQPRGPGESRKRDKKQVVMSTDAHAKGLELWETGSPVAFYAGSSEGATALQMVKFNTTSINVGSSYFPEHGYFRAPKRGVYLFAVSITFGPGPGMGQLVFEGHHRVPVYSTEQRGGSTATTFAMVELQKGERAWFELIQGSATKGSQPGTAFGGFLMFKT

Compound: CN[C@@H]1C[C@H]2O[C@@](C)([C@@H]1OC)n1c3ccccc3c3c4c(c5c6ccccc6n2c5c31)C(=O)NC4 [staurosporine]
Assay: log2 fold change of tryptic peptide abundance, ligand vs vehicle (limited proteolysis) (log2 ratio); higher = more trypsin-susceptible (destabilized)
Conditions: ligand concentration: 20 uM; sample: mouse liver crude lysate; replicate design: treated separately

## UniProt A2AAE1 (peptide sequence: TQHLSLQVPLR, peptide start residue: 1215)
  log2 fold change: 0.591

## UniProt B1AZI6 (peptide sequence: LIALAICK, peptide start residue: 378)
  log2 fold change: -0.593

## UniProt B1AVH7 (peptide sequence: MEHLKDDMEAYR, peptide start residue: 450)
  log2 fold change: 0.269

## A0A0G2JDV3 (peptide sequence: MQASNSCRECIR, peptide start residue: 212), A0A0G2JDV3
  log2 fold change: -0.709

## UniProt A6H6E2 (peptide sequence: LGQLWQDVEDQLHAQR, peptide start residue: 304)
  log2 fold change: 0.164
